No constants are given. Whether binding was seen depends on the method and setting. Some binding calls cover weakened binding; strength is not graded here. For some assays here: Sequences can lack the tags named with a protein. Values belong to the binder of their own block, whether it stands above or below them.
B3: Bbc1 (natural protein, S. cerevisiae, UniProt P47068 1-1157, looked up)
chain: MSEPEVPFKVVAQFPYKSDYEDDLNFEKDQEIIVTSVEDAEWYFGEYQDSNGDVIEGIFPKSFVAVQGSEVGKEAESSPNTGSTEQRTIQPEVEQKDLPEPISPETKKETLSGPVPVPAATVPVPAATVPVPAATAVSAQVQHDSSSGNGERKVPMDSPKLKARLSMFNQDITEQVPLPKSTHLDLENIPVKKTIVADAPKYYVPPGIPTNDTSNLERKKSLKENEKKIVPEPINRAQVESGRIETENDQLKKDLPQMSLKERIALLQEQQRLQAAREEELLRKKAKLEQEHERSAVNKNEPYTETEEAEENEKTEPKPEFTPETEHNEEPQMELLAHKEITKTSREADEGTNDIEKEQFLDEYTKENQKVEESQADEARGENVAEESEIGYGHEDREGDNDEEKEEEDSEENRRAALRERMAKLSGASRFGAPVGFNPFGMASGVGNKPSEEPKKKQHKEKEEEEPEQLQELPRAIPVMPFVDPSSNPFFRKSNLSEKNQPTETKTLDPHATTEHEQKQEHGTHAYHNLAAVDNAHPEYSDHDSDEDTDDHEFEDANDGLRKHSMVEQAFQIGNNESENVNSGEKIYPQEPPISHRTAEVSHDIENSSQNTTGNVLPVSSPQTRVARNGSINSLTKSISGENRRKSINEYHDTVSTNSSALTETAQDISMAAPAAPVLSKVSHPEDKVPPHPVPSAPSAPPVPSAPSVPSAPPVPPAPPALSAPSVPPVPPVPPVSSAPPALSAPSIPPVPPTPPAPPAPPAPLALPKHNEVEEHVKSSAPLPPVSEEYHPMPNTAPPLPRAPPVPPATFEFDSEPTATHSHTAPSPPPHQNVTASTPSMMSTQQRVPTSVLSGAEKESRTLPPHVPSLTNRPVDSFHESDTTPKVASIRRSTTHDVGEISNNVKIEFNAQERWWINKSAPPAISNLKLNFLMEIDDHFISKRLHQKWVVRDFYFLFENYSQLRFSLTFNSTSPEKTVTTLQERFPSPVETQSARILDEYAQRFNAKVVEKSHSLINSHIGAKNFVSQIVSEFKDEVIQPIGARTFGATILSYKPEEGIEQLMKSLQKIKPGDILVIRKAKFEAHKKIGKNEIINVGMDSAAPYSSVVTDYDFTKNKFRVIENHEGKIIQNSYKLSHMKSGKLKVFRIVARGYVGW
notes: Bbc1, S. cerevisiae; also called Bbc1-3myeGFP; Bbc1-3mCherry; source: chromosomally tagged at the endogenous locus, in the cytoplasm of living S. cerevisiae cells

Sequences of proteins named here, by UniProt entry; tags and fusion partners are left off.
UniProt Q12446: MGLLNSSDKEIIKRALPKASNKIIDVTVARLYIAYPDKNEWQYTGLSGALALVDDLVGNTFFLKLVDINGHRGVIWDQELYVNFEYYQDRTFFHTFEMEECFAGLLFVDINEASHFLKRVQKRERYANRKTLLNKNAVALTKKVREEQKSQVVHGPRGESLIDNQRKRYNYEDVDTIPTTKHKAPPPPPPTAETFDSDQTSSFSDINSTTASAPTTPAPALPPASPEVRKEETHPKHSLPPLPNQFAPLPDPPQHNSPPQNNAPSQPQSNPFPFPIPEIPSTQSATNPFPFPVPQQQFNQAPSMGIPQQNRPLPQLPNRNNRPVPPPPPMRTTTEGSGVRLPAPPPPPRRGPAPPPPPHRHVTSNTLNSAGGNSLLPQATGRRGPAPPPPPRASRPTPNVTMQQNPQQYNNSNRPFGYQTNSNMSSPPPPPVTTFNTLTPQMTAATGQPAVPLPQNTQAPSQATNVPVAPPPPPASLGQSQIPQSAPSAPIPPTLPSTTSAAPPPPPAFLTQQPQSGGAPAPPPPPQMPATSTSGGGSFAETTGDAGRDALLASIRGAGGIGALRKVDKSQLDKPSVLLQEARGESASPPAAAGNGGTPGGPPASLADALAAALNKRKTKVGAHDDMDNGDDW

Tests used:
[1] = molecular target: ede1Δ901–1381-1myeGFP (S. cerevisiae) (UniProt P34216); assay: FCS molecular brightness (counts per particle per second); living yeast cells, cytoplasm; brightness of GFP-tagged particles compared with 3myeGFP and Ent2-3myeGFP (monomers) or with wild-type Ede1; average of all particles
Sla1 [2] = molecular target: T1, Sla1 (S. cerevisiae, UniProt P32790 1-1244); assay: fluorescence cross-correlation spectroscopy (FCCS); living yeast cells, observation volume in the cytoplasm; one protein tagged with (3)myeGFP/eGFP and the other with 3mCherry in the same strain; apparent (effective) KD; interactions up to ~1 μM detectable
T1 construct: Sla1, S. cerevisiae; also called Sla1-3myeGFP; Sla1-3mCherry; source: chromosomally tagged at the endogenous locus, in the cytoplasm of living S. cerevisiae cells
T1 sequence (looked up): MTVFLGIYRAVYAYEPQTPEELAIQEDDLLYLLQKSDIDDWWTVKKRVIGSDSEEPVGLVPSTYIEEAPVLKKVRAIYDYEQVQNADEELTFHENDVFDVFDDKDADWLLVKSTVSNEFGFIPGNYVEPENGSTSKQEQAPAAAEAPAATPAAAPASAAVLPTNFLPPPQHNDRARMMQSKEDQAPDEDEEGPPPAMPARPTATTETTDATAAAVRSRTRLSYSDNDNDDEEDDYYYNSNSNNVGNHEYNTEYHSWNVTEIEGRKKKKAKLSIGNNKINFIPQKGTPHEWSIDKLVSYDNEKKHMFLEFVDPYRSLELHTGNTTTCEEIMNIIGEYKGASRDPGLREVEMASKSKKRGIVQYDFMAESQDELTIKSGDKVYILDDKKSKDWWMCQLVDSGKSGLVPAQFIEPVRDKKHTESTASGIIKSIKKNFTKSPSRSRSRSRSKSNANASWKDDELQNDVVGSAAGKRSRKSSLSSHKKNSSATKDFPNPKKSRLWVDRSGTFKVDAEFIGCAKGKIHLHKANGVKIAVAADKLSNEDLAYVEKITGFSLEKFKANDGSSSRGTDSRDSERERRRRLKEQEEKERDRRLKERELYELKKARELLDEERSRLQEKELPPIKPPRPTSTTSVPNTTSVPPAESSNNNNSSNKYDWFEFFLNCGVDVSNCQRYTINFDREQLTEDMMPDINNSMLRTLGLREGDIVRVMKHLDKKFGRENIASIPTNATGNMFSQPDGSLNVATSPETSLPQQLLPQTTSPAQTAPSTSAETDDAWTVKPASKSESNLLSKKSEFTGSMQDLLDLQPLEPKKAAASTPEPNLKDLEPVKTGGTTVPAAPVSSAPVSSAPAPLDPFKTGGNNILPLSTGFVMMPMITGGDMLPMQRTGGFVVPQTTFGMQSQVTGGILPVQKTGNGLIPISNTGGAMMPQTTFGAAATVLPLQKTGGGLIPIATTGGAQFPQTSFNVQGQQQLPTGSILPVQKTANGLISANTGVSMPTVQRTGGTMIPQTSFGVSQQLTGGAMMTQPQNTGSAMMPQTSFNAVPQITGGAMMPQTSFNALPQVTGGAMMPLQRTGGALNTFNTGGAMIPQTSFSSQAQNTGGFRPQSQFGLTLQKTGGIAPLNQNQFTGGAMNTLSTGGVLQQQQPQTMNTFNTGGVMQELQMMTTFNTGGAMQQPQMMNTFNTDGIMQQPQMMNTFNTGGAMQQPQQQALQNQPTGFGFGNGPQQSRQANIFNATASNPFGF

Las17 (S. cerevisiae) = Las17 (S. cerevisiae) (UniProt Q12446); assay: as above
Sla1 [3] = molecular target: T1, Sla1; assay: condition: 1000 nM (only Kdeff-values < 1000 nM are shown); fluorescence cross-correlation spectroscopy (FCCS); in the cytoplasm of living yeast cells; first-named protein green (3myeGFP or 1myeGFP; eGFP for Don1), second red (3mCherry); self-interaction in diploid strains with one allele of each colour; apparent or effective KD (Kdeff) from single-cell measurements; only Kdeff values < 1000 nM are shown; values for self-interactions are upper limits
Bbc1 = molecular target: B3; assay: fluorescence cross-correlation spectroscopy (FCCS); self-interaction: living diploid yeast cells with one allele fused to (3)myeGFP and one to (3)mCherry, cytoplasm; apparent (effective) KD, to be taken as the upper limit since complexes of one colour are not seen

binding [1]: binds
B1: ede1Δ901–1381-1myeGFP (domain or fragment, UniProt P34216 1-900)
chain: MASITFRTPLSSQEQAFYNQKFHQLDTEDLGVVTGEAVRPLFASSGLPGQLLSQVWATVDIDNKGFLNLNEFSAALRMIAQLQNAPNQPISAALYESTPTQLASFSINQNPAPMQSGSATGNTNNTDIPALSSNDIAKFSQLFDRTAKGAQTVAGDKAKDIFLKARLPNQTLGEIWALCDRDASGVLDKSEFIMAMYLIQLCMSHHPSMNTPPAVLPTQLWDSIRLEPVVVNQPNRTTPLSANSTGVSSLTRHSTISRLSTGAFSNAASDWSLSFEKKQQFDAIFDSLDKQHAGSLSSAVLVPFFLSSRLNQETLATIWDLADIHNNAEFTKLEFAIAMFLIQKKNAGVELPDVIPNELLQSPALGLYPPNPLPQQQSAPQIAIPSRASKPSLQDMPHQVSAPAVNTQPTVPQVLPQNSNNGSLNDLLALNPSFSSPSPTKAQTVVQNNTNNSFSYDNNNGQATLQQQQPQQPPPLTHSSSGLKKFTPTSNFGQSIIKEEPEEQEQLRESSDTFSAQPPPVPKHASSPVKRTASTTLPQVPNFSVFSMPAGAATSAATGAAVGAAVGAAALGASAFSRSSNNAFKNQDLFADGEASAQLSNATTEMANLSNQVNSLSKQASITNDKKSRATQELKRVTEMKNSIQIKLNNLRSTHDQNVKQTEQLEAQVLQVNKENETLAQQLAVSEANYHAAESKLNELTTDLQESQTKNAELKEQITNLNSMTASLQSQLNEKQQQVKQERSMVDVNSKQLELNQVTVANLQKEIDGLGEKISVYLTKQKELNDYQKTVEEQHAQLQAKYQDLSNKDTDLTDREKQLEERNRQIEEQENLYHQHVSKLQEMFDDLSQRKASFEKADQELKERNIEYANNVRELSERQMNLAMGQLPEDAKDIIAKSAS

binding (Sla1 [2]): binds weakly
binding (Las17 (S. cerevisiae)): binds weakly
B2: Bzz1 (natural protein, S. cerevisiae, UniProt P38822 1-633, looked up)
chain: MSADLSIGNEIKDSFKETHKWVQNNLKWLKDIEQFYRERAKLEKDYSERLSRLSAEYFNKKSSTSVPISVGDTPTTTPGSIEAAGVVAWNEILSQTDMISKDHDQLSTDFENHVANQLSGLFTKLDMTLSKINGFNNDMVNKKDNIYHELEKAKKDYDEACSTMEMARNRYTKASNDRNKKKLDEKEMEMNKCKNEYLIKINQANRTKDKYYFQDVPEVLDLLQDVNEAKTLFLNDLWLKAASVENDLGANVSKRLQAANSVVKQNKPSLNTAIFIKHNLKNWKEPQDFVYKPSPVWHDDEKFAVPSSLEVEDLRIKLAKAENDYNSLQDKTQNELSKLSTLNKIKHEMKTNEDNINATKFYDTLKEYLNVVSPFTSHETLKLQAEVQIESIQNNVPEEYDLSTDNIDLSKTKKKSGIFSKFKHNILNVDSKPSSGGSTGNGNGGPLHITSLFNTSRRTRLGSAPNNAGEDSDNNSIRTTSTNNTKKTTQNSSDDGKNKVLYAYVQKDDDEITITPGDKISLVARDTGSGWTKINNDTTGETGLVPTTYIRISSAATVKANDRGPAPEVPPPRRSTLPVRTMEAIYAYEAQGDDEISIDPGDIITVIRGDDGSGWTYGECDGLKGLFPTSYCK
notes: Bzz1, S. cerevisiae; also called Bzz1-3myeGFP; Bzz1-3mCherry; source: chromosomally tagged at the endogenous locus, in the cytoplasm of living S. cerevisiae cells

Binder: B3
binding (Sla1 [3]): no binding
binding (Bbc1): binds
